According to PMC7934944:
No constants are given. Whether binding was seen depends on the method and setting. In cells and extracts the contact can be indirect.

By UniProt entry, the sequences of proteins in these tests, tags left out.
UniProt Q5VT25: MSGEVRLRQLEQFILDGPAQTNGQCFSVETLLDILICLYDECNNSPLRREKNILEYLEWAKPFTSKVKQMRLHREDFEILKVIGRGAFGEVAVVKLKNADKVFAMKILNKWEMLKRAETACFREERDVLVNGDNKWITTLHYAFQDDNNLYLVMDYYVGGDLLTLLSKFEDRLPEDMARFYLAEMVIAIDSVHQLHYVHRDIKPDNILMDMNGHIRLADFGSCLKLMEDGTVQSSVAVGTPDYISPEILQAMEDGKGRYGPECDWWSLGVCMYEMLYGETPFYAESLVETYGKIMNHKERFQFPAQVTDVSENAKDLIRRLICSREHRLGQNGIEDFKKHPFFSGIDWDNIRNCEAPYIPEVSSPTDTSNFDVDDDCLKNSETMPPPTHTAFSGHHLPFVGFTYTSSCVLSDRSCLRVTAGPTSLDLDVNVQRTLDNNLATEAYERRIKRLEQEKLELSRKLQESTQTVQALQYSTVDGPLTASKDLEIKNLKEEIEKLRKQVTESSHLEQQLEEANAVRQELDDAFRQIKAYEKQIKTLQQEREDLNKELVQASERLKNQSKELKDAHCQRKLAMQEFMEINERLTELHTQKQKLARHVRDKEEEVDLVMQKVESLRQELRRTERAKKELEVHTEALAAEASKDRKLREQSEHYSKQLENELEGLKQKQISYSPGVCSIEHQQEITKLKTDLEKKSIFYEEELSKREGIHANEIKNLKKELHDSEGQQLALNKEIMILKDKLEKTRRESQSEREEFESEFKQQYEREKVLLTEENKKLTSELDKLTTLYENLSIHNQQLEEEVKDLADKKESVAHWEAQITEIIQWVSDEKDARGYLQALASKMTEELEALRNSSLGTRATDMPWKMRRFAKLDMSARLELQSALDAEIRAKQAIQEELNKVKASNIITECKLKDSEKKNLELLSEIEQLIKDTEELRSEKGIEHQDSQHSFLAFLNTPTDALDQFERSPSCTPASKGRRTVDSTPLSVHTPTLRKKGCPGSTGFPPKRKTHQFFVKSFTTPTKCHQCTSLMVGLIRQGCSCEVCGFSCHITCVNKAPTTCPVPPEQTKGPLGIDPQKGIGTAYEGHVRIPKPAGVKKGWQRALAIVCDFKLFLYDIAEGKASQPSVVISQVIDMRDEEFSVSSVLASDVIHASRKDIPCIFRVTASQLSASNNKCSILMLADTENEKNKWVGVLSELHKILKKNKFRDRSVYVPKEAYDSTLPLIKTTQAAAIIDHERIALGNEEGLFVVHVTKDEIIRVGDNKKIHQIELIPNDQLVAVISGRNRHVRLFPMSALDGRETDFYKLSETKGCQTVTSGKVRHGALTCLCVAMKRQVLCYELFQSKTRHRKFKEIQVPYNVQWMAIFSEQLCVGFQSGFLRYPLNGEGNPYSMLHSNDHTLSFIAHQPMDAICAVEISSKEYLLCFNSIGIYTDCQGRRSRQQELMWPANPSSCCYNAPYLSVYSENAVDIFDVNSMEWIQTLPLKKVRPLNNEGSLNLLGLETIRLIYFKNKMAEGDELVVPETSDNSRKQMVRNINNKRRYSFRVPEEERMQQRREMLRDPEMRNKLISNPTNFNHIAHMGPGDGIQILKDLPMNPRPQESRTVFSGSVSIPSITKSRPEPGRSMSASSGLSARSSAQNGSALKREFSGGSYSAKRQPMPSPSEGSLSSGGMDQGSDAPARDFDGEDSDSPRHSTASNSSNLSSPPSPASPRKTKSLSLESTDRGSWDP
UniProt P14415: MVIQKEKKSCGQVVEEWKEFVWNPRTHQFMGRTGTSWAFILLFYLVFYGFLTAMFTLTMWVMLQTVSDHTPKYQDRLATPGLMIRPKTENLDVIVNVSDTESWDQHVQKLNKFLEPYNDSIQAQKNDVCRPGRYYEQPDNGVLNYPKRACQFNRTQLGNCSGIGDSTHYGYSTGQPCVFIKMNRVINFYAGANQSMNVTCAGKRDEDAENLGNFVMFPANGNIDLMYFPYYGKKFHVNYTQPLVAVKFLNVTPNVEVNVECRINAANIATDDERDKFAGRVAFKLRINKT

Biological target: myotonic dystrophy kinase–related cdc42-binding kinase α (MRCKα) (human (endogenous in 16HBE14o-)) (UniProt Q5VT25)
Assay: co-IP; lysate of untransfected 16HBE14o- cells immunoprecipitated with anti-MRCKα antibody (IgG as control), μMACS Protein G Kit, 4°C overnight; blot for the endogenous β isoforms; 5% of lysate as input

binding	Substance
no binding	NKA β2 subunit (from UniProt P14415 1-290)
no binding	NKA β3 subunit (from UniProt P54709 1-279)
